Measurements: patent US20230227499A1 (Stealth Biotherapeutics Inc., priority 2020, published 2023)

Assay: general procedure: solution-phase peptide synthesis; EDC·HCl / 1-Hydroxybenzotriazole

With “(10S,13S,16R)-16-amino-N—((S)-1-amino-1-oxo-3-phenylpropan-2-yl)-13-(4-hydroxy-2,6-dimethylbenzyl)-2-imino-4,12,15-trioxo-1,3,5,11,14-pentaazacyclononadecane-10-carboxamide” the “final HPLC purity” value (cyclisation step, run 1) was 97.0%, the “final HPLC purity” value (cyclisation step, run 2) was 97.6% and the cyclisation yield (cyclisation step, overall) was “overall yield 6.5%”.
In the case of D-(N2-Boc)-Arg-DMT-Lys-Phe-NH2, the step yield (late stage modification step) is reported as 66%.
